Assay results as given in the supplement of paper PMC12823440, “Inhibitors supercharge kinase turnover through native proteolytic circuits” (Nature, 2025).
Structures can show the parent of a compound that is named as a salt. This is one part of the list. The calls rarely recur for the same compound in another form.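 Kinases, fused to nanoluciferase, were expressed in K562 cells; luminescence was measured every 4 h from 2 to 18 h as percent of control (DMSO = 100%, positive control = 0%). A time point is decreased if signal falls significantly (2 sigma). Hits were called by the authors by a rule that is not shown; the count of time points alone does not decide it.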

Sequences of proteins named here, by UniProt entry; tags and fusion partners are left off. A change or cut given only in a name is not applied to a line headed by its entry.
UniProt Q16620, whole entry, looked up: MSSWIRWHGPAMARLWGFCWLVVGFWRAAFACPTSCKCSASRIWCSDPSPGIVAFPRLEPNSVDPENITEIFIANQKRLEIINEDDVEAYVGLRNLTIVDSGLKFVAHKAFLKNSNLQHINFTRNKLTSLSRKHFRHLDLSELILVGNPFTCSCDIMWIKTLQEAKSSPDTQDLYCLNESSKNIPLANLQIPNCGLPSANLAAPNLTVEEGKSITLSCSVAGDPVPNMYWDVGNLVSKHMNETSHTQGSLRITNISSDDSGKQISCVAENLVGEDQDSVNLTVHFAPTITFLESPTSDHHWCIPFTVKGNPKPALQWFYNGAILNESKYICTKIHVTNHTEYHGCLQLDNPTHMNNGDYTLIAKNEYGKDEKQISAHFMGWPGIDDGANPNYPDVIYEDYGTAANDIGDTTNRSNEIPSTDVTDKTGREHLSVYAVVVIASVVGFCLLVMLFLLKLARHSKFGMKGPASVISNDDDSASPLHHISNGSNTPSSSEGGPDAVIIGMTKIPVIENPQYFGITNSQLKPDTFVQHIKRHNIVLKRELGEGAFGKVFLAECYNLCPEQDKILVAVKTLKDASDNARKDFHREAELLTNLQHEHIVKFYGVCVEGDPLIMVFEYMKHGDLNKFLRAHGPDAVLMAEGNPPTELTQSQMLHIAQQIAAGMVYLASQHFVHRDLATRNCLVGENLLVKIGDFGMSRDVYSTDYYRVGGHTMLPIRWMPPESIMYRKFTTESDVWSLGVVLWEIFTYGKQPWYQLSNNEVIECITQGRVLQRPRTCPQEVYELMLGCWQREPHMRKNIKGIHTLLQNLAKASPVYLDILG
UniProt Q16288, whole entry, looked up: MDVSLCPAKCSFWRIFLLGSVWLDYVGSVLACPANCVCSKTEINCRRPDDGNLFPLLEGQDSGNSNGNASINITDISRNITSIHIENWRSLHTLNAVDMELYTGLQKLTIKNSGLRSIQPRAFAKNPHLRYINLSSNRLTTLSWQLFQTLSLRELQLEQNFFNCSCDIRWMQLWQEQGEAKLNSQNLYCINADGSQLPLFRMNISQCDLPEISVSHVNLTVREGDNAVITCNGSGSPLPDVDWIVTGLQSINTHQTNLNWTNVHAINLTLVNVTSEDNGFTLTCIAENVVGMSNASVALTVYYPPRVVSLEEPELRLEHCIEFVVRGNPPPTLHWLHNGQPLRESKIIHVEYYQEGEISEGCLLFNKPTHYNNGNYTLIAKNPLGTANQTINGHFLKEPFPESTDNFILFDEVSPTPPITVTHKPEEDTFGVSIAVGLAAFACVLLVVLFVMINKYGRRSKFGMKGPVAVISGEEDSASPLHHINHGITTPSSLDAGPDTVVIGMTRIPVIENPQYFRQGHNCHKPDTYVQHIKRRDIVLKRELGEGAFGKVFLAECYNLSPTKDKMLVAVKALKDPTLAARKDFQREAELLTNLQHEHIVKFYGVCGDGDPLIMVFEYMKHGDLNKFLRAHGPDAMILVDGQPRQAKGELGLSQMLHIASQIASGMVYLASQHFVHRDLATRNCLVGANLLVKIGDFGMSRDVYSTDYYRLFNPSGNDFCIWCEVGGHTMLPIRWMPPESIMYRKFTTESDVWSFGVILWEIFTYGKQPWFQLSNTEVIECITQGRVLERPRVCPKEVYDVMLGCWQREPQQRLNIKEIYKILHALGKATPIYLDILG
UniProt O96013: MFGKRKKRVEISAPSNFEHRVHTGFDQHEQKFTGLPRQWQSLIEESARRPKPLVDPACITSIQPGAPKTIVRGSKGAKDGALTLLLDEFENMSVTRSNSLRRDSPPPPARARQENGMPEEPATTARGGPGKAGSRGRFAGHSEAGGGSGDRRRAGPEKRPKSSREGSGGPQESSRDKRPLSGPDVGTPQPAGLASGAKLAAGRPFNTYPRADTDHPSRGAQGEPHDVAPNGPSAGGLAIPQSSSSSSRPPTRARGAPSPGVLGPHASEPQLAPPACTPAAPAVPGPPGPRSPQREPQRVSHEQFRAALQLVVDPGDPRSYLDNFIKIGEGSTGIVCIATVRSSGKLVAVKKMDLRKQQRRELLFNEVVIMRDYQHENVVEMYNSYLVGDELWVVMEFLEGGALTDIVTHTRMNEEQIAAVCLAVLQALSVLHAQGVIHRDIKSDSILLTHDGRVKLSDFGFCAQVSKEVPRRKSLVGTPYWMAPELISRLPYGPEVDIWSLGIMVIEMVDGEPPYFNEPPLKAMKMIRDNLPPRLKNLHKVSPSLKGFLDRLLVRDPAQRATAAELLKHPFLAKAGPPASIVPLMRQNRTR
UniProt O15530: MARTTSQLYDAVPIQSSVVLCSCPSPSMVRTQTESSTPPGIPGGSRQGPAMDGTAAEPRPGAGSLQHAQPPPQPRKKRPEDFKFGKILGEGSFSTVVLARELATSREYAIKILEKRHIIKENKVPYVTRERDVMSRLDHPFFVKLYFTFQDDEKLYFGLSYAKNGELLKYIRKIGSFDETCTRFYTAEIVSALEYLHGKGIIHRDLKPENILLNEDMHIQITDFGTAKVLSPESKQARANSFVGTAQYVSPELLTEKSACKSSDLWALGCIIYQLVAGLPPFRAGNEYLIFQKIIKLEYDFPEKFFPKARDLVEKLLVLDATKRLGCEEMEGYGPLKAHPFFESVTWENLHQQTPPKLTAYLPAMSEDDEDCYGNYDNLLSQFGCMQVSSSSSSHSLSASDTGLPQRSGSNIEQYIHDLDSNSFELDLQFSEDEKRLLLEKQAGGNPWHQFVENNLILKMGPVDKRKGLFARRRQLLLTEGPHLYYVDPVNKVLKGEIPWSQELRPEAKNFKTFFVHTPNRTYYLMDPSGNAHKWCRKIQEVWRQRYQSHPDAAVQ
UniProt P42356, whole entry, looked up: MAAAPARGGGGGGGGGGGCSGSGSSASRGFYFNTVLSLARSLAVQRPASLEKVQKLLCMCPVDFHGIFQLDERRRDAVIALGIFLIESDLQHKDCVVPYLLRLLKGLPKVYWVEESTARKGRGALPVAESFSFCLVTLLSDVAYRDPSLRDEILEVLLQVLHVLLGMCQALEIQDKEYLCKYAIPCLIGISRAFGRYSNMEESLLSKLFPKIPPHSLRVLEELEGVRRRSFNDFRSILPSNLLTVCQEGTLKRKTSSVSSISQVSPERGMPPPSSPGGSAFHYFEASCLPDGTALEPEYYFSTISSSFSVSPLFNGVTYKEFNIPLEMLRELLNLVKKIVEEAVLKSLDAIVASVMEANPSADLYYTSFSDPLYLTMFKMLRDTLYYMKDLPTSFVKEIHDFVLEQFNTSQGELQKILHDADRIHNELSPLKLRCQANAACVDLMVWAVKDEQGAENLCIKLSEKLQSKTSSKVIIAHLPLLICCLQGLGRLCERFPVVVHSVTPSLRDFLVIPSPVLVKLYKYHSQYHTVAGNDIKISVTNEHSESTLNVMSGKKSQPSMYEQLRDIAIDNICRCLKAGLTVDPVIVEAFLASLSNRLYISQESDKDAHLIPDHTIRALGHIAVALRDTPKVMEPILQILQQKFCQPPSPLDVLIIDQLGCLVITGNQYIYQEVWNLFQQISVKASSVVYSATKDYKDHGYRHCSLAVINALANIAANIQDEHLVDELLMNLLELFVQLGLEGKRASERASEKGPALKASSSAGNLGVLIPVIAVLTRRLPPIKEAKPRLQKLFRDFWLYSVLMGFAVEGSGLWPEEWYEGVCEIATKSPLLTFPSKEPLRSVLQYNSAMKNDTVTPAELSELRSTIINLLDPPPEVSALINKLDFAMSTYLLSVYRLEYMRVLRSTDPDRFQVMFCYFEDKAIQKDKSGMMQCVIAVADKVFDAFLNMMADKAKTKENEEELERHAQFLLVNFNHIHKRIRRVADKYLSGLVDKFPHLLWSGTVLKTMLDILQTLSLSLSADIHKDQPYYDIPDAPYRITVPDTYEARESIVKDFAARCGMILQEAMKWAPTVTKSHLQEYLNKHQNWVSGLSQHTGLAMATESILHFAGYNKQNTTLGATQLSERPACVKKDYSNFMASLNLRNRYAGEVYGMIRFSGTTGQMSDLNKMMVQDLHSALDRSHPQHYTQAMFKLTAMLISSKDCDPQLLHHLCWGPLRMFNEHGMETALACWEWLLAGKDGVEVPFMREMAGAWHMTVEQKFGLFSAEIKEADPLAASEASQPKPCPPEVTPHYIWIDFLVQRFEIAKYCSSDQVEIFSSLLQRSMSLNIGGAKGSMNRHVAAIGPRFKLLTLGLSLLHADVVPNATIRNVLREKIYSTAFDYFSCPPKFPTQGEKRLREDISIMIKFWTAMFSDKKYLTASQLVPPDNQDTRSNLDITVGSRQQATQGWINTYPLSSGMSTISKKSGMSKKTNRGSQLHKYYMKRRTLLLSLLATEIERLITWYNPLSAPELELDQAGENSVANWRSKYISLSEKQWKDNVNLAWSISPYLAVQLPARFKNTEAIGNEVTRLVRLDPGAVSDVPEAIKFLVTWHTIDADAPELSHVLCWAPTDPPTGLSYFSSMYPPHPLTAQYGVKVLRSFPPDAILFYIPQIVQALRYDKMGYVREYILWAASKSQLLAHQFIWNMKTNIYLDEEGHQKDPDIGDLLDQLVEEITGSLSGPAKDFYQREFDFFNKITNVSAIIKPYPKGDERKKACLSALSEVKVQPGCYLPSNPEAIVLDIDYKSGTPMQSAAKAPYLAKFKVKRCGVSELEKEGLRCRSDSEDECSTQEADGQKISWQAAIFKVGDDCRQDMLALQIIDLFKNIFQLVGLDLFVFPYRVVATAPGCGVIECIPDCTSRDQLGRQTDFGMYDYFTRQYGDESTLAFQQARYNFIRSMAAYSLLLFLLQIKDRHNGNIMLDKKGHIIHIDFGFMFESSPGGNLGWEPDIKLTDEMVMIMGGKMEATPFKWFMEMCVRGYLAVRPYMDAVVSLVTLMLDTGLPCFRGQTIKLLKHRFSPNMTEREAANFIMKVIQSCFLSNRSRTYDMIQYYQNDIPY
UniProt Q9UBF8: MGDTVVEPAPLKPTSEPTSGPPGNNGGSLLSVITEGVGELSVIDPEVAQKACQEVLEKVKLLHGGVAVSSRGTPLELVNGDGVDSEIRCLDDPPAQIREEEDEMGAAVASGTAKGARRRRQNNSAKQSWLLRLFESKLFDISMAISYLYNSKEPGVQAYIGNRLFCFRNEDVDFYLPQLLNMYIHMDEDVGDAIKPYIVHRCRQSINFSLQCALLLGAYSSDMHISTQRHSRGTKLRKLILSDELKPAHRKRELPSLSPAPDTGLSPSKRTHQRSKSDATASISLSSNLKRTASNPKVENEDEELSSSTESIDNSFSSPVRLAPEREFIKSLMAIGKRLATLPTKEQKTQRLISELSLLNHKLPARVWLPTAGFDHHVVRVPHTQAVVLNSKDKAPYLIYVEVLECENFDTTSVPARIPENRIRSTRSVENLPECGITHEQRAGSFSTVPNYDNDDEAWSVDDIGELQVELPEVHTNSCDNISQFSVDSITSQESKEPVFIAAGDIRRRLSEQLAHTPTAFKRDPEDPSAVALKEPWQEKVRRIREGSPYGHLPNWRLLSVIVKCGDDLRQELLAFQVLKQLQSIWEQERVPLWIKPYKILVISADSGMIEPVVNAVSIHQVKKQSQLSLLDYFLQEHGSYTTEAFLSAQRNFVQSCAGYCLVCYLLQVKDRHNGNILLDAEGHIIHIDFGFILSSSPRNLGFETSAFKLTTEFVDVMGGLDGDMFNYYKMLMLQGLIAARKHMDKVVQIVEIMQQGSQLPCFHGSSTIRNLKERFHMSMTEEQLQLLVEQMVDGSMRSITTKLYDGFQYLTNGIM
UniProt P53350, whole entry: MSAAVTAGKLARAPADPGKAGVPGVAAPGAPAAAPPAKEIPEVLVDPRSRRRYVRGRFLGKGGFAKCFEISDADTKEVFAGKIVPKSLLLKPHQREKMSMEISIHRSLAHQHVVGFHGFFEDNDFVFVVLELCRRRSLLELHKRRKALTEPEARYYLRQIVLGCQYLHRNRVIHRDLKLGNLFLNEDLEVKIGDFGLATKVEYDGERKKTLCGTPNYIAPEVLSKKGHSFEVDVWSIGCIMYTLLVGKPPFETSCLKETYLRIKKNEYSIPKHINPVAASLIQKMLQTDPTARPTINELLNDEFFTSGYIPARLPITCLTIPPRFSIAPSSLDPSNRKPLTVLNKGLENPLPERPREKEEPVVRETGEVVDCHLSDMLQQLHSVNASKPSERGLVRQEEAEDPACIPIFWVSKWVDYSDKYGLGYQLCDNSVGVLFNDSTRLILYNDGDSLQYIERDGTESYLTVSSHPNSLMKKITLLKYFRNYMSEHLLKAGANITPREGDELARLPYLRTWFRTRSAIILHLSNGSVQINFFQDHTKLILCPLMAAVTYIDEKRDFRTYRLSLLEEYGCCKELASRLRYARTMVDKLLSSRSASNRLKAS

Experiments:
Experiment in all cases: number of time points (of 5) at which kinase-Nluc abundance scored as decreased, DMSO-normalised (count); higher = more persistent destabilization
Details in all cases: K562; 2-18 h
LMTK2 = LMTK2 (UniProt Q8IWU2)
LYN = LYN (UniProt P07948)
MAP2K1 = MAP2K1 (UniProt Q02750)
MAP2K2 = MAP2K2 (UniProt P36507)
MAP4K2 = MAP4K2 (UniProt Q12851)
MAPK1 = MAPK1 (UniProt P28482)
MAPK4 = MAPK4 (UniProt P31152)
MAPKAPK2 = MAPKAPK2 (UniProt P49137)
MKNK1 = MKNK1 (UniProt Q9BUB5)
NTRK2 = NTRK2 (UniProt Q16620)
NTRK3 = NTRK3 (UniProt Q16288)
PAK4 = PAK4 (UniProt O96013)
PBK = PBK (UniProt Q96KB5)
PDGFRB = PDGFRB (UniProt P09619)
PDK1 = PDK1 (UniProt Q15118)
PDPK1 = PDPK1 (UniProt O15530)
PIK4CA = PIK4CA (UniProt P42356)
PIK4CB = PIK4CB (UniProt Q9UBF8)
PLK1 = PLK1 (UniProt P53350)
PRKAA1 = PRKAA1 (UniProt Q13131)

Measured: number of time points

C=CC(=O)Nc1ccc2[nH]c(=O)n(C3CCN(Cc4ccc(-c5nc6cc[nH]c(=O)c6cc5-c5ccccc5)cc4)CC3)c2c1 [Borussertib] (10 µM)
0: LMTK2 | LYN | MAP2K1 | MAP2K2 | MAP4K2 | MAPK1 | MAPK4 | MAPKAPK2 | MKNK1 | NTRK2 | NTRK3 | PAK4 | PBK | PDGFRB | PDK1 | PDPK1 | PIK4CA | PIK4CB | PLK1 | PRKAA1

CC1C(=O)OC2C(O)C34C5OC(=O)C3(OC3OC(=O)C(O)C34C(C(C)(C)C)C5O)C12O (stereo not given) [Ginkgolide C] (10 µM)
0: LMTK2 | LYN | MAP2K1 | MAP2K2 | MAP4K2 | MAPK1 | MAPK4 | MAPKAPK2 | MKNK1 | NTRK2 | NTRK3 | PAK4 | PBK | PDGFRB | PDK1 | PDPK1 | PIK4CA | PIK4CB | PLK1 | PRKAA1

CC1=C[C@]23C(=O)[C@@H](C=C(CO)[C@@H](O)[C@]2(O)[C@H]1O)[C@H]1[C@@H](C[C@H]3C)C1(C)C [Ingenol] (10 µM)
0: LMTK2 | LYN | MAP2K1 | MAP2K2 | MAP4K2 | MAPK1 | MAPK4 | MAPKAPK2 | MKNK1 | NTRK2 | NTRK3 | PAK4 | PBK | PDGFRB | PDK1 | PDPK1 | PIK4CA | PIK4CB | PLK1 | PRKAA1

CC(C)(C)c1cc(C=C(C#N)C#N)cc(Br)c1O (2.5 µM)
0: LMTK2 | LYN | MAP2K1 | MAP2K2 | MAP4K2 | MAPK1 | MAPK4 | MAPKAPK2 | MKNK1 | NTRK2 | NTRK3 | PAK4 | PBK | PDGFRB | PDK1 | PDPK1 | PIK4CA | PIK4CB | PLK1 | PRKAA1

CCOC(=O)c1c(/C(C#N)=C\N)c2ccc(Cl)c(Cl)c2n1C (10 µM)
0: LMTK2 | LYN | MAP2K1 | MAP2K2 | MAP4K2 | MAPK1 | MAPK4 | MAPKAPK2 | MKNK1 | NTRK2 | NTRK3 | PAK4 | PBK | PDGFRB | PDK1 | PDPK1 | PIK4CA | PIK4CB | PLK1 | PRKAA1

NCCc1cn(S(=O)(=O)c2c(Cl)nc3sccn23)c2ccccc12 (10 µM)
0: LMTK2 | LYN | MAP2K1 | MAP2K2 | MAP4K2 | MAPK1 | MAPK4 | MAPKAPK2 | MKNK1 | NTRK2 | NTRK3 | PAK4 | PBK | PDGFRB | PDK1 | PDPK1 | PIK4CA | PIK4CB | PLK1 | PRKAA1

O=C(O)c1sc2cc(Cl)ccc2c1Cl (10 µM)
0: LMTK2 | LYN | MAP2K1 | MAP2K2 | MAP4K2 | MAPK1 | MAPK4 | MAPKAPK2 | MKNK1 | NTRK2 | NTRK3 | PAK4 | PBK | PDGFRB | PDK1 | PDPK1 | PIK4CA | PIK4CB | PLK1 | PRKAA1

CCCCCCCCCCCCCCCCOC[C@H](COP(=O)([O-])OCC[N+](C)(C)C)OC(C)=O (10 µM)
0: LMTK2 | LYN | MAP2K1 | MAP2K2 | MAP4K2 | MAPK1 | MAPK4 | MAPKAPK2 | MKNK1 | NTRK2 | NTRK3 | PAK4 | PBK | PDGFRB | PDK1 | PDPK1 | PIK4CA | PIK4CB | PLK1 | PRKAA1

CC(C)=CC[C@@H](OC(=O)CC(C)(C)O)C1=CC(=O)c2c(O)ccc(O)c2C1=O [β-Hydroxyisovalerylshikonin] (2.5 µM)
0: LMTK2 | LYN | MAP2K1 | MAP2K2 | MAP4K2 | MAPK1 | MAPK4 | MAPKAPK2 | MKNK1 | NTRK2 | NTRK3 | PAK4 | PBK | PDGFRB | PDK1 | PDPK1 | PIK4CA | PIK4CB | PLK1 | PRKAA1

O=[N+]([O-])/C=C/c1ccc2c(c1)OCO2 (2.5 µM)
0: LMTK2 | LYN | MAP2K1 | MAP2K2 | MAP4K2 | MAPK1 | MAPK4 | MAPKAPK2 | MKNK1 | NTRK2 | NTRK3 | PAK4 | PBK | PDGFRB | PDK1 | PDPK1 | PIK4CA | PIK4CB | PLK1 | PRKAA1

C[C@H]1CC[C@]2(NC1)O[C@H]1C[C@H]3[C@@H]4CC[C@H]5C[C@@H](O[C@@H]6O[C@H](CO)[C@H](O[C@@H]7O[C@H](CO)[C@@H](O)[C@H](O[C@@H]8OC[C@@H](O)[C@H](O)[C@H]8O)[C@H]7O[C@@H]7O[C@H](CO)[C@@H](O)[C@H](O)[C@H]7O)[C@H](O)[C@H]6O)CC[C@]5(C)[C@H]4CC[C@]3(C)[C@H]1[C@@H]2C [Tomatine] (2.5 µM)
4: PIK4CA
5: NTRK3
0: MAP2K1 | MAP2K2 | MAP4K2 | MAPK1 | MAPK4 | MAPKAPK2 | MKNK1 | NTRK2 | PAK4 | PBK | PDK1 | PDPK1 | PIK4CB | PLK1 | PRKAA1
2: LMTK2 | PDGFRB
3: LYN

Two entries drawn at random from the list so far, as already listed:
CC(C)(C)c1cc(C=C(C#N)C#N)cc(Br)c1O (2.5 µM)
0: LMTK2 | LYN | MAP2K1 | MAP2K2 | MAP4K2 | MAPK1 | MAPK4 | MAPKAPK2 | MKNK1 | NTRK2 | NTRK3 | PAK4 | PBK | PDGFRB | PDK1 | PDPK1 | PIK4CA | PIK4CB | PLK1 | PRKAA1

CC1C(=O)OC2C(O)C34C5OC(=O)C3(OC3OC(=O)C(O)C34C(C(C)(C)C)C5O)C12O (stereo not given) [Ginkgolide C] (10 µM)
0: LMTK2 | LYN | MAP2K1 | MAP2K2 | MAP4K2 | MAPK1 | MAPK4 | MAPKAPK2 | MKNK1 | NTRK2 | NTRK3 | PAK4 | PBK | PDGFRB | PDK1 | PDPK1 | PIK4CA | PIK4CB | PLK1 | PRKAA1

Further structures

O=c1[nH]c2ccccc2n1C1CCN(CCCC(c2ccc(F)cc2)c2ccc(F)cc2)CC1 [Pimozide] (2.5 µM)
0: LMTK2 | LYN | MAP2K1 | MAP2K2 | MAP4K2 | MAPK1 | MAPK4 | MAPKAPK2 | MKNK1 | NTRK2 | NTRK3 | PAK4 | PBK | PDGFRB | PDK1 | PDPK1 | PIK4CA | PIK4CB | PLK1 | PRKAA1

Nc1ncnc2c1ncn2[C@@H]1O[C@@H]2COP(O)(=S)O[C@H]2[C@H]1O (stereo not given in full) [Sp-cAMPS (sodium salt)] (10 µM)
0: LMTK2 | LYN | MAP2K1 | MAP2K2 | MAP4K2 | MAPK1 | MAPK4 | MAPKAPK2 | MKNK1 | NTRK2 | NTRK3 | PAK4 | PBK | PDGFRB | PDK1 | PDPK1 | PIK4CA | PIK4CB | PLK1 | PRKAA1

O=C(/C=C/c1ccccc1)OC[C@H]1O[C@@H](O[C@@H]2OC=C[C@H]3[C@H](O)[C@@H]4O[C@]4(CO)[C@@H]23)[C@H](O)[C@@H](O)[C@@H]1O [Picroside I] (10 µM)
0: LMTK2 | LYN | MAP2K1 | MAP2K2 | MAP4K2 | MAPK1 | MAPK4 | MAPKAPK2 | MKNK1 | NTRK2 | NTRK3 | PAK4 | PBK | PDGFRB | PDK1 | PDPK1 | PIK4CA | PIK4CB | PLK1 | PRKAA1

C[C@@H]1CC[C@H]2[C@@H](C)C(=O)O[C@@H]3O[C@@]4(C)CC[C@@H]1[C@]32OO4 [Artemisinin] (10 µM)
0: LMTK2 | LYN | MAP2K1 | MAP2K2 | MAP4K2 | MAPK1 | MAPK4 | MAPKAPK2 | MKNK1 | NTRK2 | NTRK3 | PAK4 | PBK | PDGFRB | PDK1 | PDPK1 | PIK4CA | PIK4CB | PLK1 | PRKAA1

O=c1[nH]c2ccccc2n1C1CCN(Cc2ccc(-c3[nH]c4cc5ncnc5cc4nc3-c3ccccc3)cc2)CC1 [AKT inhibitor VIII] (2.5 µM)
0: LMTK2 | LYN | MAP2K1 | MAP2K2 | MAP4K2 | MAPK1 | MAPK4 | MAPKAPK2 | MKNK1 | NTRK2 | NTRK3 | PAK4 | PBK | PDGFRB | PDK1 | PDPK1 | PIK4CA | PIK4CB | PLK1 | PRKAA1

C=CC(=O)N[C@H]1C=C(C)c2c(-c3cnc4ccccc4c3)c3c(N)ncnc3n2C1 (10 µM)
0: LMTK2 | LYN | MAP2K1 | MAP2K2 | MAP4K2 | MAPK1 | MAPK4 | MAPKAPK2 | MKNK1 | NTRK2 | NTRK3 | PAK4 | PBK | PDGFRB | PDK1 | PDPK1 | PIK4CA | PIK4CB | PLK1 | PRKAA1

Cn1cc(C2=C(c3cn(C4CCN(Cc5ccccn5)CC4)c4ccccc34)C(=O)NC2=O)c2ccccc21 [Enzastaurin] (10 µM)
0: LMTK2 | LYN | MAP2K1 | MAP2K2 | MAP4K2 | MAPK1 | MAPK4 | MAPKAPK2 | MKNK1 | NTRK2 | NTRK3 | PAK4 | PBK | PDGFRB | PDK1 | PDPK1 | PIK4CA | PIK4CB | PLK1 | PRKAA1

COc1ccc2c(c1OC)C(OC)N(C)c1c-2ccc2cc3c(cc12)OCO3 (stereo not given) [Angoline] (10 µM)
0: LMTK2 | LYN | MAP2K1 | MAP2K2 | MAP4K2 | MAPK1 | MAPK4 | MAPKAPK2 | MKNK1 | NTRK2 | NTRK3 | PAK4 | PBK | PDGFRB | PDK1 | PDPK1 | PIK4CA | PIK4CB | PLK1 | PRKAA1

C/C(O)=C(\C#N)C(=O)Nc1cc(Br)ccc1Br (10 µM)
0: LMTK2 | LYN | MAP2K1 | MAP2K2 | MAP4K2 | MAPK1 | MAPK4 | MAPKAPK2 | MKNK1 | NTRK2 | NTRK3 | PAK4 | PBK | PDGFRB | PDK1 | PDPK1 | PIK4CA | PIK4CB | PLK1 | PRKAA1

Cc1[nH]ncc1-c1cc2nc([C@H]3CC4CCN3CC4)[nH]c(=O)c2s1 [(R)-Simurosertib] (10 µM)
0: LMTK2 | LYN | MAP2K1 | MAP2K2 | MAP4K2 | MAPK1 | MAPK4 | MAPKAPK2 | MKNK1 | NTRK2 | NTRK3 | PAK4 | PBK | PDGFRB | PDK1 | PDPK1 | PIK4CA | PIK4CB | PLK1 | PRKAA1
